# System: primary FSHD cells
# Assay: fusion index (myotube fusion) readout of the high-content assay in primary FSHD cells
# Format: cell-based, human
# Settings: 72 h treatment, compound present during whole differentiation
# Description: A quantitative assay readout was developed based on script-based image analysis. […] To analyse the images, an automated script was developed, enabling the detection of nuclei, myotube borders and DUX4 signals, with the script also detecting artefacts to reduce false positive signals. The script enabled multiple validated readouts including the number of DUX4 positive nuclei and nuclei clusters, the fusion index, myotube area, myotube width and myotube skeleton length (see FIG. 2). Additionally, the total nuclei count was included as a measure of cell loss or compound toxicity.
# Compounds are administered either 15 h before fixation, resembling the original screening protocol, or 72 h before fixation (grey arrow). In the latter case, compounds are present during the whole differentiation process.
smiles,measurement,value
COc1ccc(CC(C)NCC(O)c2ccc(O)c(NC=O)c2)cc1 (stereo not shown) [formoterol],effect on fusion index / myotube fusion,no myotube formation can be observed

# Source: patent US20220226340A1, “CASEIN KINASE 1 INHIBITORS FOR USE IN THE TREATMENT OF DISEASES RELATED TO DUX4 EXPRESSION SUCH AS MUSCULAR DYSTROPHY AND CANCER” (Facio Intellectual Property B.V., priority 2019, published 2022)
